Source: patent publication US6448270B1, “4-substituted piperidine analogs and their use as subtype selective NMDA receptor antagonists” (Warner-Lambert Company, priority 1995, dated 2002)
Structures were worked out from names or drawings and are uncertain.

The chains behind the UniProt entries cited, without tags or fusion partners. Residues count along the entry.
UniProt Q00960, 27-1482 limits assumed: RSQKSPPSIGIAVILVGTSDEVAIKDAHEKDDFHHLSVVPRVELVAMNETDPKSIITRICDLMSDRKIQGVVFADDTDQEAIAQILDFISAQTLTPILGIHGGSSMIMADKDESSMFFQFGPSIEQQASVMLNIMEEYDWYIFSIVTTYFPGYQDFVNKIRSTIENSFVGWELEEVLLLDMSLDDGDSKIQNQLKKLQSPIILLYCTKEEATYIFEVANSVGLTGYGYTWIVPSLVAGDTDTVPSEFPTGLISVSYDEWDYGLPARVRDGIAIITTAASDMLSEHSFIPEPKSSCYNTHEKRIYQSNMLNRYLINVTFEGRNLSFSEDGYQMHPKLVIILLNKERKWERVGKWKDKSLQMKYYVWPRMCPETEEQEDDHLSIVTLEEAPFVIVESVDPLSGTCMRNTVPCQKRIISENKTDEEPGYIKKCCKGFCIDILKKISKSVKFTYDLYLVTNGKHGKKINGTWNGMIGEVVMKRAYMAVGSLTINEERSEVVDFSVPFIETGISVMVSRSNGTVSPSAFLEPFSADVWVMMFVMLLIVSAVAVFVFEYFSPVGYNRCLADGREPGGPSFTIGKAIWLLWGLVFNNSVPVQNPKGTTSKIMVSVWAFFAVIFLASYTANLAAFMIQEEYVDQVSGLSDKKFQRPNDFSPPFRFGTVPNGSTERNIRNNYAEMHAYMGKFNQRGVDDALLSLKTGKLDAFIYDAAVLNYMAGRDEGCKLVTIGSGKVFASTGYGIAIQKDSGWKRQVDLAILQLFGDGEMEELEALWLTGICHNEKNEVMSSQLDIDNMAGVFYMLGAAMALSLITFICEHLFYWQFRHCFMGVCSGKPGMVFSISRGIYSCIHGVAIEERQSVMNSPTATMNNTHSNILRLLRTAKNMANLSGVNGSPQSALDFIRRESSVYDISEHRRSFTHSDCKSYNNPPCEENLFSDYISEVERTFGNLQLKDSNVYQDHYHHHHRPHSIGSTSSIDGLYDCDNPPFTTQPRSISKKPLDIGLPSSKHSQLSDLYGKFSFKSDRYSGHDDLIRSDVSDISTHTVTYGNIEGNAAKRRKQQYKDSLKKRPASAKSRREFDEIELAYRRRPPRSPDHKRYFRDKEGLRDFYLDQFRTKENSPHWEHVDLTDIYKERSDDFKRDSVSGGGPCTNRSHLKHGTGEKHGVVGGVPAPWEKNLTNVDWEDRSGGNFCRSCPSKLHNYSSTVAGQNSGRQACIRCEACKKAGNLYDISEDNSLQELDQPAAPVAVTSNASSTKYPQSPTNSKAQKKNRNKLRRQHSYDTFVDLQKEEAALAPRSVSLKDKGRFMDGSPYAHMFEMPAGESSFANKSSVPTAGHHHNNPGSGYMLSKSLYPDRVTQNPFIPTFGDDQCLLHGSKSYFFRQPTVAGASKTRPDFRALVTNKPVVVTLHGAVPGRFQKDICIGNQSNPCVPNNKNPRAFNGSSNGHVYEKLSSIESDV

Biological target: NR1A/NR2B NMDA receptor (Rattus norvegicus, UniProt P35439+Q00960)
Experiment: Electrophysiological assay, cloned NMDA receptor subunits expressed in Xenopus oocytes (1A/2B)
Format: cell-based
Settings: read-out: Subunits (IC50 (μM)) 1A/2B, mean IC50, inhibition of NMDA-activated membrane current responses, glutamate 100 μM + glycine
Description: Electrophysiological Assays at NMDA Receptor Subunits
cDNA clones encoding the NR1A, NR2A, NR2B, NR2C and NR2D rat NMDA receptor subtypes were provided by Dr. P. H. Seeburg (see, Moriyoshi et al., Nature (Lond.) 354:31-37 (1991); Kutsuwada et al., Nature (Lond.) 358:36-41 (1992) Monyer et al., Science (Washington, D.C.) 256:1217-1221 (1992); Ikeda et al., FEBS Lett. 313:34-38 (1992); Ishii et al., J. Biol. Chem. 268:2836-2843 (1993) for details of these clones or their mouse homologs). The clones were transformed into appropriate host bacteria and plasmid preparations were made with conventional DNA purification techniques. […]
Electrical recordings were made using a conventional two-electrode voltage clamp (Dagan TEV-200) over periods ranging between 3-21 days following injection. […] Inhibitory potency of the novel antagonists was assessed on responses elicited by fixed concentrations of glutamate and glycine, by measuring reductions in current induced by progressively increasing concentrations of antagonist. […]
in which Icontrol is the current evoked by agonists alone, pIC50=−log IC50, IC50 is the concentration of antagonist that produces half maximal inhibition, and n is the slope factor. […] For incomplete curves analysis by fitting was unreliable and IC50 values were calculated by simple regression over linear portions of the curves (Origin: Microcal Software).

With `CS(=O)(=O)Nc1ccc(C#CCCN2CCC(Sc3ccccc3)CC2)cc1` the IC50 was 0.4 µM.
